According to patent publication US8299055B2, “8-substituted isoquinoline derivative and the use thereof” (Asahi Kasei Pharma Corporation, priority 2008, dated 2012):
Some entries share one result that the patent states for a list of compounds. At least one compound was matched to its structure with a doubt left.

Experiments:
[1] = test system: TNF-α production in THP-1 cells; experiment: TNF-α production suppressing ability (in vitro)-1, LPS-stimulated THP-1 cells; type: cell-based, human; conditions: at 5 μM or lower, LPS 2 μg/mL, 4 hours
[2] = test system: TNF-α production in mouse blood; experiment: TNF-α production suppressing ability (in vitro)-2, LPS added to mouse blood; type: cell-based; conditions: at 10 μM or lower; BALB/c mouse blood, LPS 5 μg/mL, 4 hours

SMILES | TNF-α production suppression rate [1] [%] | TNF-α production suppression rate [2] [%]
CCS(=O)(=O)N1CCC(CNc2cc(-c3cccc(C#N)c3)cc3ccncc23)CC1 [Example 3-N-405] | ≥ 50 | ≥ 50
CS(=O)(=O)NCCCNc1cc(-c2cccc(C#N)c2)cc2ccncc12 [Example 3-N-410] | ≥ 50 | ≥ 50
CS(=O)(=O)N1CC(N2CCC(Nc3cc(-c4cccc(C#N)c4)cc4ccncc34)CC2)C1 [Example 3-N-520] | ≥ 50 | –
N#Cc1cc(-c2cc(NC3CCN(S(=O)(=O)C4CC4)CC3)c3cnccc3c2)cc(C(F)(F)F)c1 [Example 3-NP-75] | ≥ 50 | –
N#CCCc1ccc(-c2cc(NC3CCN(S(=O)(=O)C4CC4)CC3)c3cnccc3c2)cc1 [Example 3-NP-76] | ≥ 50 | –
CCOc1cccc(-c2cc(NC3CCN(S(=O)(=O)CC)CC3)c3cnccc3c2)c1 [Example 3-NP-83] | ≥ 50 | –
COCC(=O)N1CCC(Nc2cc(-c3ccc(OC)c(C#N)c3)cc3ccncc23)CC1 [Example 3-NP-99] | ≥ 50 | –
COCC(=O)N1CCC(Nc2cc(-c3cccc(CCC#N)c3)cc3ccncc23)CC1 [Example 3-NP-102] | ≥ 50 | –
Cn1cnc(S(=O)(=O)N2CCC(Oc3cc(-c4cccc(C#N)c4)cc4ccncc34)CC2)c1 [Example 3-o-6] | ≥ 50 | –
CS(=O)(=O)N1CC(Oc2cc(-c3cccc(C#N)c3)cc3ccncc23)C1 [Example 3-o-8] | ≥ 50 | –
N#Cc1cccc(-c2cc(OC3CN(S(=O)(=O)Cc4cccnc4)C3)c3cnccc3c2)c1 [Example 3-o-11] | ≥ 50 | –
Cn1cnc(S(=O)(=O)N2CCC(COc3cc(-c4cccc(C#N)c4)cc4ccncc34)C2)c1 (centres unmarked) [Example 3-o-15] | ≥ 50 | –
CS(=O)(=O)N1CC(COc2cc(-c3cccc(C#N)c3)cc3ccncc23)C1 [Example 3-o-19] | ≥ 50 | –
CS(=O)(=O)N1CCOC(C(=O)N2CCC(Oc3cc(-c4cccc(C#N)c4)cc4ccncc34)CC2)C1 (centres unmarked) [Example 3-o-26] | ≥ 50 | –
N#Cc1ccc(-c2cc(NC3CN(S(=O)(=O)c4ccc(Cl)nc4)C3)c3cnccc3c2)cc1F [Example 4-NP-10] | ≥ 50 | –
CCS(=O)(=O)N1CCC(Nc2cc(-c3cccc(OCCOC)c3)cc3ccncc23)CC1 [Example 4-NP-36] | ≥ 50 | –
Cc1ncc(S(=O)(=O)N2CCC(Nc3cc(-c4ccc(C#N)c(F)c4)cc4ccncc34)CC2)[nH]1 [Example 4-NP-43] | ≥ 50 | –
Cn1cccc1-c1cc(NC2CCN(S(C)(=O)=O)CC2)c2cnccc2c1 [Example 4-NP-270] | ≥ 50 | –
CC(C)Nc1ccc(-c2cc(NC3CCN(S(=O)(=O)C4CC4)CC3)c3cnccc3c2)cn1 [Example 4-NP-318] | ≥ 50 | –
CCS(=O)(=O)N1CCC(Nc2cc(-c3cnc(OC)c(C)c3)cc3ccncc23)CC1 [Example 4-NP-341] | ≥ 50 | –
Cc1ccc(-c2cc(NC3CN(S(C)(=O)=O)C3)c3cnccc3c2)cn1 [Example 4-NP-421] | ≥ 50 | –
CS(=O)(=O)N1CCC(Nc2cc(-c3cnc(N)nc3)cc3ccncc23)CC1 [Example 4-NP-430] | ≥ 50 | –
Cc1cc(-c2cc(NC3CCN(C(=O)C4CCCCC4)CC3)c3cnccc3c2)ccn1 [Example 4-NP-451] | ≥ 50 | –
CCC(=O)N1CCC(Nc2cc(-c3ccnc(C)c3)cc3ccncc23)CC1 [Example 4-NP-457] | ≥ 50 | –
N#Cc1cccc(-c2cc(OC3CN(Cc4cccnc4)C3)c3cnccc3c2)c1 [Example 4-o-5] | ≥ 50 | –
N#Cc1cccc(-c2cc(OC3CN(CC4CCOC4)C3)c3cnccc3c2)c1 (centres unmarked) [Example 4-o-7] | ≥ 50 | –
CCS(=O)(=O)N1CCC(Nc2cc(NC(=O)c3cccc(C#N)c3)cc3ccncc23)CC1 [Example 6-NP-4, 3-cyano-N-(8-(1-(ethylsulfonyl)piperidin-4-ylamino)isoquinolin-6-yl)benzamide] | ≥ 50 | –
CCS(=O)(=O)N1CCC(Nc2cc(NC(=O)c3ccc(C#N)cc3)cc3ccncc23)CC1 [Example 6-NP-5, 4-cyano-N-(8-(1-(ethylsulfonyl)piperidin-4-ylamino)isoquinolin-6-yl)benzamide] | ≥ 50 | –
CCS(=O)(=O)N1CCC(Nc2cc(NC(=O)c3ccccc3)cc3ccncc23)CC1 [Example 6-NP-9, N-(8-(1-(ethylsulfonyl)piperidin-4-ylamino)isoquinolin-6-yl)benzamide] | ≥ 50 | –
N#Cc1cccc(-c2cc(OC3CN(c4cccnc4)C3)c3cnccc3c2)c1 [Example 6-o-3, 3-(8-(1-(pyridin-3-yl)azetidin-3-yloxy)isoquinolin-6-yl)benzonitrile] | ≥ 50 | –
